# Data as given in patent US8268827B2, “Pyridazinone derivatives as PARP inhibitors” (Istituto di Ricerche di Biologia Molecolare P. Angeletti …, priority 2007, dated 2012).
# Amino acid sequences for entries named in this document (tags omitted).
# UniProt P09874, whole entry: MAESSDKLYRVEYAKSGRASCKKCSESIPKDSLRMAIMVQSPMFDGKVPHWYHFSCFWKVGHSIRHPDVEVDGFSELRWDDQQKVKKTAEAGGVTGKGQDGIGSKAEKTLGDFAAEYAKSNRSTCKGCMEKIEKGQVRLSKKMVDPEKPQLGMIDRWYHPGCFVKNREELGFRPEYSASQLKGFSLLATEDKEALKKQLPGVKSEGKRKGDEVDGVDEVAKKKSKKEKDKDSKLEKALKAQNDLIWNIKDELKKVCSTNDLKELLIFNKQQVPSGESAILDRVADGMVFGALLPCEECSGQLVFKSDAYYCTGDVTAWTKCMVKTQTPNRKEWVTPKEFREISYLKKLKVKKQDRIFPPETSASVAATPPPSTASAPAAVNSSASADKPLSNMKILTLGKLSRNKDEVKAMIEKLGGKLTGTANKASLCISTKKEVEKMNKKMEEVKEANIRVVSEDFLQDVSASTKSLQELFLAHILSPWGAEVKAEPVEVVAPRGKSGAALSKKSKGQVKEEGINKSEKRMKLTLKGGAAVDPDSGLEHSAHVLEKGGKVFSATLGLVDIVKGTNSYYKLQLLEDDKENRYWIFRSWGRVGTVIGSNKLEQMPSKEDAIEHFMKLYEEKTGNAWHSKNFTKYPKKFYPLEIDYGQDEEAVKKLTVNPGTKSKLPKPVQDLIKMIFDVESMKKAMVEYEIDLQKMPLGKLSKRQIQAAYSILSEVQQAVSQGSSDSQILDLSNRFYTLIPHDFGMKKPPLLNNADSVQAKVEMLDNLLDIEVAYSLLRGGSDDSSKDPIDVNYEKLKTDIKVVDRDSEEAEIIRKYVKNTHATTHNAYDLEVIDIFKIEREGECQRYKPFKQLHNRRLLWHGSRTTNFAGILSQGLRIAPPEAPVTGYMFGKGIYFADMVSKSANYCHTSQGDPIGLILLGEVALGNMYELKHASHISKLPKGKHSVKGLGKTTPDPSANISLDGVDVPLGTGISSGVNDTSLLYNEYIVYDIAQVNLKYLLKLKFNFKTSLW
# Counter-ions that a name gives are not always drawn. Some of these results come from one statement about several compounds together. At least one structure is not confirmed: it was looked up by name or label, or the drawing left a doubt.
# Target: T1, PARP-1 (Homo sapiens, UniProt P09874)
# T1 construct: purchased Trevigen 4668-500-01
# Assay: PARP-1 SPA assay
# Type: biochemical
# Details: not given
# Procedure, shortened: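 PARP-1 reaction in Tris pH 8 buffer with MgCl2, spermine, KCl, activated calf thymus DNA and a mix of [3H]-NAD, NAD and biotinylated NAD, 2 h at RT. Stopped with EDTA/streptavidin SPA beads and poly(ADP-ribose) incorporation counted by scintillation.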
row,Compound,IC50
1,"Cc1c(Cc2ccc(F)c(C(=O)N3CCN([C@@H](c4ccccc4)C(F)F)C(=O)C3)c2)n[nH]c(=O)c1C [Example 124, 6-(3-{[4-(2,2-difluoro-1S-phenylethyl)-3-oxopiperazin-1-yl]carbonyl}-4-fluorobenzyl)-4,5-dimethyl-3-oxo-2,3-dihydropyridazin-1-ium trifluoroacetate]",5 to 25 nM
2,"Cc1c(Cc2ccc(F)c(C(=O)N3CC(=O)N(c4cccc(Cl)c4F)[C@H](C)C3)c2)n[nH]c(=O)c1C [Example 206, 6-(3-{[(3R)-4-(3-Chloro-2-fluorophenyl)-3-methyl-5-oxopiperazin-1-yl]carbonyl}-4-fluorobenzyl)-4,5-dimethylpyridazin-3(2H)-one]",< 5 nM
3,"Cc1c(Cc2ccc(F)c(C(=O)N3CC(=O)N(c4ccc(Cl)c(F)c4)[C@@H](C)C3)c2)n[nH]c(=O)c1C [Example 208, 6-(3-{[(3S)-4-(4-Chloro-3-fluorophenyl)-3-methyl-5-oxopiperazin-1-yl]carbonyl}-4-fluorobenzyl)-4,5-dimethylpyridazin-3(2H)-one]",< 5 nM
4,"Cc1c(Cc2ccc(F)c(C(=O)N3CC(=O)N(C4CC(F)(F)C4)[C@@H](C)C3)c2)n[nH]c(=O)c1C [Example 209, 6-(3-{[(3S)-4-(3,3-Difluorocyclobutyl)-3-methyl-5-oxopiperazin-1-yl]carbonyl}-4-fluorobenzyl)-4,5-dimethylpyridazin-3(2H)-one]",< 5 nM
5,"Cc1c(Cc2ccc(F)c(C(=O)N3CC(=O)N(C4CC(F)(F)C4)[C@H](C)C3)c2)n[nH]c(=O)c1C [Example 210, 6-(3-{[(3R)-4-(3,3-Difluorocyclobutyl)-3-methyl-5-oxopiperazin-1-yl]carbonyl}-4-fluorobenzyl)-4,5-dimethylpyridazin-3(2H)-one]",< 5 nM
6,"Cc1c(Cc2ccc(F)c(C(=O)N3CCN(C(C)C)C(=O)C3)c2)n[nH]c(=O)c1C [Example 211, 6-{4-Fluoro-3-[(4-isopropyl-3-oxopiperazin-1-yl)carbonyl]benzyl}-4,5-dimethylpyridazin-3(2H)-one]",< 5 nM

# Tested on: BRCA-1 silenced HeLa cells (HeLa shBRCA1-GFP)
# Assay: Proliferation assay in BRCA-1 silenced HeLa cells
# Details: read-out: CC50 in the BRCA1 silenced HeLa cells, 168 hours
row,Compound,CC50
1,"Cc1c(Cc2ccc(F)c(C(=O)N3CCN([C@@H](c4ccccc4)C(F)F)C(=O)C3)c2)n[nH]c(=O)c1C [Example 124, 6-(3-{[4-(2,2-difluoro-1S-phenylethyl)-3-oxopiperazin-1-yl]carbonyl}-4-fluorobenzyl)-4,5-dimethyl-3-oxo-2,3-dihydropyridazin-1-ium trifluoroacetate]",50 to 500 nM
